No constants are given. Whether binding was seen depends on the method and setting. For part of these data: Binding seen in cells or lysates may run through a third protein. Some results given as binding are weak or reduced against the parent protein; the word gives no strength. For part of these data: Where a sequence is shown, tags or fusion partners need not be part of it.
Legend:
[1] = biological target: T1, γ subunit of purified bovine heart F-ATP synthase (bovine) (UniProt P05631); assay: far-Western, overlay or dot blot; purified bovine F-ATP synthase subunits or purified CyPD separated by SDS-PAGE and transferred onto nitrocellulose; incubated with or without 50 µg purified TRAP1 for 30 min in overlay buffer (50 mM Tris-HCl pH 7.5, 200 mM NaCl, 3% BSA, 0.1% polyethylene glycol); detected with anti-TRAP1 antibody; casein as negative control; both purified
T1 sequence: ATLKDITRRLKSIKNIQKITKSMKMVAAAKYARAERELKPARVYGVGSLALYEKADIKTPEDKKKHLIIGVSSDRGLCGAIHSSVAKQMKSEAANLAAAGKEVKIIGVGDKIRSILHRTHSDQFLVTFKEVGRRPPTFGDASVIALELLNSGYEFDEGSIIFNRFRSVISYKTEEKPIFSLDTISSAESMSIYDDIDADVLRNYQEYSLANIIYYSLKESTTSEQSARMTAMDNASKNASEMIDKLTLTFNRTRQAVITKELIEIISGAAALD

Sequences of proteins named here, by UniProt entry; tags and fusion partners are left off. Residues count along the entry.
UniProt P13619, residues 43-256: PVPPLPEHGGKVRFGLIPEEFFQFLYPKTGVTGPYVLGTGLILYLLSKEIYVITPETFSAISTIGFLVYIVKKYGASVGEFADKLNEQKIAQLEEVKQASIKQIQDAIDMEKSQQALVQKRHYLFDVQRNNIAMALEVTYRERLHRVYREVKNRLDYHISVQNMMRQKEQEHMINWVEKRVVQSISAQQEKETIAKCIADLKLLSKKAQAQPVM
UniProt P00829, residues 47-528: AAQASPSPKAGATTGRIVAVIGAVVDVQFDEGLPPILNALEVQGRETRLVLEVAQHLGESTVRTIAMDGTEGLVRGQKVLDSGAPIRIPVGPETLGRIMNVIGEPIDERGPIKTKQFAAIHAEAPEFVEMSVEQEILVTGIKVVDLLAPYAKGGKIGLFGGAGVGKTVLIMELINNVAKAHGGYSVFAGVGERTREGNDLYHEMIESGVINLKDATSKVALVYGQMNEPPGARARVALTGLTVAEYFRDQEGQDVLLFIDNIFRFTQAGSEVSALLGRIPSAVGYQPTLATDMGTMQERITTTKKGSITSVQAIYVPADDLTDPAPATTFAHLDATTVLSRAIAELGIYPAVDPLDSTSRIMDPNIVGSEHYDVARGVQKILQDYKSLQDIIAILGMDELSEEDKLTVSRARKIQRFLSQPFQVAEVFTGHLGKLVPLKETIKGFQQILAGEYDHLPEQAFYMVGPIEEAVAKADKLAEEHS
UniProt Q28852: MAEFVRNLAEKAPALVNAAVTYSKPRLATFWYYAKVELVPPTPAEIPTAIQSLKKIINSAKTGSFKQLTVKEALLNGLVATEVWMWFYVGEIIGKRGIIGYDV
UniProt P19483, residues 44-553: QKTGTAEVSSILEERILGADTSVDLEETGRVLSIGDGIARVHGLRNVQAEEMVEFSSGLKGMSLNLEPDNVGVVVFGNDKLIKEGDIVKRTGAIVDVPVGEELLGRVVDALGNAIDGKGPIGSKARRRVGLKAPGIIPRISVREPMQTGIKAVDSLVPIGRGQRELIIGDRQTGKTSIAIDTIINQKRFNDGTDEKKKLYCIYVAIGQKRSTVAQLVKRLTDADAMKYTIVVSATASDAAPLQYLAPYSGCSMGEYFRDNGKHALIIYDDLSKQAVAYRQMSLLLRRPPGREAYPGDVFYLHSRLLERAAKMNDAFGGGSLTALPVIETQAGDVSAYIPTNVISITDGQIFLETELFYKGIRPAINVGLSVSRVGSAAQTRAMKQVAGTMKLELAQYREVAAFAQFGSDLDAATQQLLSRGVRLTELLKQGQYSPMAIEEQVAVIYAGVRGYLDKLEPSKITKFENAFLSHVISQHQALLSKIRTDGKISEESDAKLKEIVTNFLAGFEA
UniProt P13621, residues 24-213: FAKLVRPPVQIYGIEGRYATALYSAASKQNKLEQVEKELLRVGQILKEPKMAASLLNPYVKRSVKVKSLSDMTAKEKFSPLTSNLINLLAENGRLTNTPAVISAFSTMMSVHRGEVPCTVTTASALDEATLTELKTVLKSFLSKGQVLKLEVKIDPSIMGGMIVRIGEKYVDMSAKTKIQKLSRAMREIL
UniProt P31040, residues 43-664: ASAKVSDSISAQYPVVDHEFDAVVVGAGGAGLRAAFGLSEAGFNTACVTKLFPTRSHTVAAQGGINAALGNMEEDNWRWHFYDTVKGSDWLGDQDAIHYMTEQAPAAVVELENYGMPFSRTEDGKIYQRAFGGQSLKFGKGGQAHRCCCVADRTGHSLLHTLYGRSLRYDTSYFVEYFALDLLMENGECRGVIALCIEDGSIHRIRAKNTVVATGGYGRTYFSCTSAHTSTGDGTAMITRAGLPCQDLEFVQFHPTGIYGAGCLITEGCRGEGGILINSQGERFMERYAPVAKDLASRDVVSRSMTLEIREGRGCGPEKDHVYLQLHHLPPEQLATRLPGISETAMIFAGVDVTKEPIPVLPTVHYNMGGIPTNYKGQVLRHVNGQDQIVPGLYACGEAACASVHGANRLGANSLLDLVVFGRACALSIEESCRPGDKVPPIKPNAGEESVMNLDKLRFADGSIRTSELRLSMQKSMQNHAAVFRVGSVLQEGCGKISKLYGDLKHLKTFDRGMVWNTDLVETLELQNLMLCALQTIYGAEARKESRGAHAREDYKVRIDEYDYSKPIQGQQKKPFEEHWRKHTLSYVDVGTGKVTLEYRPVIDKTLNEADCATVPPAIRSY

[2] = biological target: b subunit of purified bovine heart F-ATP synthase (bovine) (UniProt P13619); assay: as above
[3] = biological target: β subunit of purified bovine heart F-ATP synthase (bovine) (UniProt P00829); assay: as above
[4] = biological target: g subunit of purified bovine heart F-ATP synthase (bovine) (UniProt Q28852); assay: as above
[5] = biological target: α subunit of purified bovine heart F-ATP synthase (bovine) (UniProt P19483); assay: as above
[6] = substrate: OSCP subunit of purified bovine heart F-ATP synthase (bovine) (UniProt P13621); assay: as above
[7] = biological target: purified recombinant human cyclophilin D (human), P30405; assay: as above; settings: remark: other sources report otherwise
SDHA-GFP10 = SDHA-GFP10 (UniProt P31040); assay: split reporter; tripartite split GFP in sMPNST cells co-transfected with mito-GFP1-9, a GFP10 fusion and a GFP11 fusion; MitoTracker red, fixed 48 h after transfection, microscopy; also in TRAP1 or CyPD knock-out cells and with 100 µM i5 or 2 µM CsA
OSCP-GFP10 = biological target: T2, OSCP-GFP10 (UniProt P48047); assay: as above
T2 sequence: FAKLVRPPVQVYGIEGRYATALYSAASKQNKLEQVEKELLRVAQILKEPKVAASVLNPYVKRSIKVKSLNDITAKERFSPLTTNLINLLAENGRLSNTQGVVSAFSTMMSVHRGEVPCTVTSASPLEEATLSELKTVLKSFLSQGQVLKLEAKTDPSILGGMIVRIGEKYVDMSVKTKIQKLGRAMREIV

B1: purified human TRAP1 (protein, UniProt Q12931 60-704)
chain: STQTAEDKEEPLHSIISSTESVQGSTSKHEFQAETKKLLDIVARSLYSEKEVFIRELISNASDALEKLRHKLVSDGQALPEMEIHLQTNAEKGTITIQDTGIGMTQEELVSNLGTIARSGSKAFLDALQNQAEASSKIIGQFGVGFYSAFMVADRVEVYSRSAAPGSLGYQWLSDGSGVFEIAEASGVRTGTKIIIHLKSDCKEFSSEARVRDVVTKYSNFVSFPLYLNGRRMNTLQAIWMMDPKDVREWQHEEFYRYVAQAHDKPRYTLHYKTDAPLNIRSIFYVPDMKPSMFDVSRELGSSVALYSRKVLIQTKATDILPKWLRFIRGVVDSEDIPLNLSRELLQESALIRKLRDVLQQRLIKFFIDQSKKDAEKYAKFFEDYGLFMREGIVTATEQEVKEDIAKLLRYESSALPSGQLTSLSEYASRMRAGTRNIYYLCAPNRHLAEHSPYYEAMKKKDTEVLFCFEQFDELTLLHLREFDKKKLISVETDIVVDHYKEEKFEDRSPAAECLSEKETEELMAWMRNVLGSRVTNVKVTLRLDTHPAMVTVLEMGAARHFLRMQQLAKTQEERAQLLQPTLEINPRHALIKKLNQLRASEPGLAQLLVDQIYENAMIAAGLVDDPRAMVGRLNELLVKALERH
In the case of B1, the binding [1] is reported as “binds”, the binding [2] is reported as “binds” and the binding [3] is reported as “binds”. For the same binder, the binding [4] was “binds”, the binding [5] was “binds” and the binding [6] was “binds”.

B2: purified human TRAP1, Q12931 60-704 (protein)
chain: B1 chain
For B2, the binding [7] was “binds”.

B3: SDHB-GFP11 (protein, UniProt P21912 29-280)
chain: AQTAAATAPRIKKFAIYRWDPDKAGDKPHMQTYEVDLNKCGPMVLDALIKIKNEVDSTLTFRRSCREGICGSCAMNINGGNTLACTRRIDTNLNKVSKIYPLPHMYVIKDLVPDLSNFYAQYKSIEPYLKKKDESQEGKQQYLQSIEEREKLDGLYECILCACCSTSCPSYWWNGDKYLGPAVLMQAYRWMIDSRDDFTEERLAKLQDPFSLYRCHTIMNCTRTCPKGLNPGKAIAEIKKMMATYKEKKASV
B3 was tested, and the binding (SDHA-GFP10) was “binds” and the binding (OSCP-GFP10) was “no binding”.

— publication PMC9751095
